Assay results published in publication PMC7046284.
These are yes or no findings as the source states them, for the method shown. Binding seen in cells or lysates may run through a third protein. Some binding calls cover weakened binding; strength is not graded here. Sequences can lack the tags named with a protein.

The chains behind the UniProt entries cited, without tags or fusion partners. Where a name states a change or a piece, a line headed by the entry shows the natural chain unless it says otherwise.
UniProt Q96AZ6: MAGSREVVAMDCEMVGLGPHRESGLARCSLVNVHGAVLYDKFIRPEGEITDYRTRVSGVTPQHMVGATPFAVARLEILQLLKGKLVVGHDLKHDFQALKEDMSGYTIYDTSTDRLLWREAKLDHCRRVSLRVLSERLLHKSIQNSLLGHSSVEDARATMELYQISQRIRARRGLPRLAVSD

How the values were obtained:
[1] = target: T1, FLAG-YTHDF2 (YTH-domain family 2) (UniProt Q9Y5A9); assay: co-IP; FLAG-YTHDF2 and HA-ISG20^D94G co-transfected into HepG2 cells, with or without HBV-WT plasmid, with or without IFN-α (2000 IU/ml, 24h); IP with FLAG antibody, blot with FLAG and HA antibody; lysis buffer 20 mM Tris HCl pH 8.0, 137 mM NaCl, 1% NP-40, 2 mM EDTA; 4°C overnight
T1 sequence: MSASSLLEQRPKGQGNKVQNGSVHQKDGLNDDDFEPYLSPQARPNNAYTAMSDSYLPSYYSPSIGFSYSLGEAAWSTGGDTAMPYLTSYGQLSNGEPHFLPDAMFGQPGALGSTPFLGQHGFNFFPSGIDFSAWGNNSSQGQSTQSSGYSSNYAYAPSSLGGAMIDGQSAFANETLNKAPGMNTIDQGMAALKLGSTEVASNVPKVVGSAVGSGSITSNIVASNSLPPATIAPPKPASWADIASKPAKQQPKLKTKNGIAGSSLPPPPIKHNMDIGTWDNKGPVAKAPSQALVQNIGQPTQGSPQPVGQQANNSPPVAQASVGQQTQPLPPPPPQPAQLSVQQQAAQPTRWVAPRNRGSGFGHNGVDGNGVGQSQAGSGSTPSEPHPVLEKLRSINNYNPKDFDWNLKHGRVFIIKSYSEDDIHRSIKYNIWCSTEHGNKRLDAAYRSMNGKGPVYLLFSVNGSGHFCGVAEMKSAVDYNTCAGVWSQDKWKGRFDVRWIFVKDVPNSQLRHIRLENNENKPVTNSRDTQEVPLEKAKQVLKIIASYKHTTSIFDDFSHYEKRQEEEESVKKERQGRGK

[2] = target: T1, FLAG-YTHDF2 (YTH-domain family 2); assay: co-IP; FLAG-YTHDF2 co-transfected with HBV-WT, HBV-M1, HBV-M2 or HBV-M3 into HepG2 cells, IFN-α (2000 IU/ml, 24h) to induce endogenous ISG20; IP with FLAG antibody, blot with FLAG and ISG20 antibody

Row | Substance | binding [1] | binding [2]
1 | HA-ISG20^D94G (from UniProt Q96AZ6 1-181) (enzyme) | binds | –
2 | endogenous ISG20 (IFN-α induced) (from UniProt Q96AZ6 1-181) (enzyme) | – | binds
